At least one structure is not confirmed: it was looked up by name or label, or the drawing left a doubt.
Molecular target: T1, human TRPV1 (Homo sapiens, UniProt Q8NER1)
T1 construct: expressed in transfected cells; host or cells: CHO-K1
Experiment: Measurement of capsaicin-induced Ca influx in human TRPV1 transformed CHO cell line using FDSS-6000
Type: cell-based
Conditions: concentration at which the capsaicin concentration-reaction curve is shifted two times to the right, human TRPV1 transformed CHO cells
Source text: [Measurement of Capsaicin-Induced Ca Influx in Human TRPV1 Transformed CHO Cell Line]
(1) Establishment of Human TRPV1 Transformed CHO Cell Line
Human vanilloid receptor 1 (hTRPV1) cDNA was cloned from a human brain. The cloned hTRPV1 cDNA was incorporated in a pCAGGS vector. The gene of the vector was introduced to a CHO-K1 cell line, thus performing transformation. Clones obtained by limiting dilution were stimulated with capsaicin. Clones with a high responsiveness were selected using an increase in the Ca concentration as an indicator. The selected clones were used for the following experiment.
(2) Measurement of Ca Influx Using FDSS-6000
The human TRPV1 transformed CHO cells were seeded in a 96-well plate (with black walls and transparent bottoms, manufactured by Greiner) at a density of 40,000 cells per well. The cells were cultured at 37° C. in 5% CO2 for one night. […] After the cells were stimulated with capsaicin (1 nmol/L to 1 μmol/L), the change in the Ca concentration in the cells was measured using FDSS-6000 (λex: 480 nm, λem: 540 nm, manufactured by Hamamatsu Photonics K.K.) for three minutes. The integrated values of the increase rate of the Ca concentration in the cells were calculated for a group treated with the compounds of the present invention and a group treated with a medium, thus allowing capsaicin concentration-reaction curves to be obtained. […]

By UniProt entry, the sequences of proteins in these tests, tags left out.
UniProt Q8NER1, whole entry: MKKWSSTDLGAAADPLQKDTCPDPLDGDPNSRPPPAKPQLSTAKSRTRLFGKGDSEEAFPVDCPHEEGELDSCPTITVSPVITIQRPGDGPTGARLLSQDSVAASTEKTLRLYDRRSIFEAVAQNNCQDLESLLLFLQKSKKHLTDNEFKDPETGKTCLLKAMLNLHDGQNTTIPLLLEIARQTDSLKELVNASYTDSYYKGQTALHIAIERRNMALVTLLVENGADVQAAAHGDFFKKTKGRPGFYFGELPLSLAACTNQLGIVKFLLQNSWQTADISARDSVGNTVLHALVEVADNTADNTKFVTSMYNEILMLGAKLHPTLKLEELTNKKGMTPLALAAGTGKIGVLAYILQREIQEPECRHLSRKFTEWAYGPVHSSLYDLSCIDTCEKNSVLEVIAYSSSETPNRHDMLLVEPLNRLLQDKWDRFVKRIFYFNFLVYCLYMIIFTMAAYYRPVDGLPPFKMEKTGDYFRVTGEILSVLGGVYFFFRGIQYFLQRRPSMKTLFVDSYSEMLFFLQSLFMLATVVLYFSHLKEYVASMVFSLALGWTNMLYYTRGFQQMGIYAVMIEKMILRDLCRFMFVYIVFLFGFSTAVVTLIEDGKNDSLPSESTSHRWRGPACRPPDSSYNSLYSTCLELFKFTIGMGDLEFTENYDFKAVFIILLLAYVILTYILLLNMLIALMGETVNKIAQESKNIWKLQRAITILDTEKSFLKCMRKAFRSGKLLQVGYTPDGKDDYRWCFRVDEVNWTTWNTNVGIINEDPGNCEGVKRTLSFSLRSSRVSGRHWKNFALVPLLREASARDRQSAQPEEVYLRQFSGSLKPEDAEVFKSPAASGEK

SMILES | A2 VALUE
O=C(/C=C1\CCN(C(=O)N2CC(F)(F)C2)c2cc(C(F)(F)F)ccc21)Nc1cccc2c1CC(O)CC2 (centres unmarked) [Example 113, (E)-2-(1-(3,3-difluoroazetidine-1-carbonyl)-7-trifluoromethyl-2,3-dihydroquinolin-4(1H)-ylidene)-N-(7-hydroxy-5,6,7,8-tetrahydronaphthalen-1-yl)acetamide] | A (compounds of the present invention having an A2 value of less than 100 nM are represented by A)
O=C(/C=C1\CCCOc2cc(C(F)(F)F)ccc21)Nc1cccc2c1C(O)CCC2 (centres unmarked) [Example 174, (E)-2-(8-trifluoromethyl-3,4-dihydrobenzo[b]oxepin-5(2H)-ylidene)-N-(1-hydroxy-1,2,3,4-tetrahydronaphthalen-8-yl)acetamide] | A (compounds of the present invention having an A2 value of less than 100 nM are represented by A)
